Laboratory results published in the supplement of paper PMC12067093, “Discovery and optimisation of a covalent ligand for TRIM25 and its application to targeted protein ubiquitination” (Chemical Science, 2025).
This is one part of the list.

Sequences of proteins named here, by UniProt entry; tags and fusion partners are left off. A change or cut given only in a name is not applied to a line headed by its entry.
UniProt Q8N999, whole entry, looked up: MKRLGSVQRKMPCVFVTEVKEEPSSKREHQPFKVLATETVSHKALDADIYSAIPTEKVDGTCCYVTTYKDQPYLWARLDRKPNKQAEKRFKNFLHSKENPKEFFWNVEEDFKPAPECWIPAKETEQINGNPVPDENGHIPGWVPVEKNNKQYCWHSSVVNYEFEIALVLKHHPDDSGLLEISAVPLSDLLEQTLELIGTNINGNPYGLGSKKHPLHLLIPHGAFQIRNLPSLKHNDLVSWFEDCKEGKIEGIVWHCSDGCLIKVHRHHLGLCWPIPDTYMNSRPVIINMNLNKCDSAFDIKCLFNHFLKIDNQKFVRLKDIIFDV
UniProt Q06187: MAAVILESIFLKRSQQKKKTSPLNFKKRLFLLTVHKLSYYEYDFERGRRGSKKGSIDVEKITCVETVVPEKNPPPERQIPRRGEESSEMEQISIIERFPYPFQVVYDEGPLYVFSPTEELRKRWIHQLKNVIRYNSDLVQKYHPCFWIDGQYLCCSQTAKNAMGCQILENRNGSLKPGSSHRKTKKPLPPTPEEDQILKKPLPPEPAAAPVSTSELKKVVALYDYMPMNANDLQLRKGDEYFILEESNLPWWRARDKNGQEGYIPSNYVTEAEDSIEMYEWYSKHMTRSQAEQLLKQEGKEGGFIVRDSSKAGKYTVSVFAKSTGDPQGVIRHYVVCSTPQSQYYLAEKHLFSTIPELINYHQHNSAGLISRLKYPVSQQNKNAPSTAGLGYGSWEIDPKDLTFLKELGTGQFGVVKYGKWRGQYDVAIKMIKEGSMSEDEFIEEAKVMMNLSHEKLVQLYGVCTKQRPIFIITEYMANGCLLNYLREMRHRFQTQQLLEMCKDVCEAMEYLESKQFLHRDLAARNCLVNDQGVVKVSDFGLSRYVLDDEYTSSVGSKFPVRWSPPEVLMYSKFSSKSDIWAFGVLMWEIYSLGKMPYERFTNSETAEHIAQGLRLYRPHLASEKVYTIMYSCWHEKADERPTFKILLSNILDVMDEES
UniProt Q86VP6: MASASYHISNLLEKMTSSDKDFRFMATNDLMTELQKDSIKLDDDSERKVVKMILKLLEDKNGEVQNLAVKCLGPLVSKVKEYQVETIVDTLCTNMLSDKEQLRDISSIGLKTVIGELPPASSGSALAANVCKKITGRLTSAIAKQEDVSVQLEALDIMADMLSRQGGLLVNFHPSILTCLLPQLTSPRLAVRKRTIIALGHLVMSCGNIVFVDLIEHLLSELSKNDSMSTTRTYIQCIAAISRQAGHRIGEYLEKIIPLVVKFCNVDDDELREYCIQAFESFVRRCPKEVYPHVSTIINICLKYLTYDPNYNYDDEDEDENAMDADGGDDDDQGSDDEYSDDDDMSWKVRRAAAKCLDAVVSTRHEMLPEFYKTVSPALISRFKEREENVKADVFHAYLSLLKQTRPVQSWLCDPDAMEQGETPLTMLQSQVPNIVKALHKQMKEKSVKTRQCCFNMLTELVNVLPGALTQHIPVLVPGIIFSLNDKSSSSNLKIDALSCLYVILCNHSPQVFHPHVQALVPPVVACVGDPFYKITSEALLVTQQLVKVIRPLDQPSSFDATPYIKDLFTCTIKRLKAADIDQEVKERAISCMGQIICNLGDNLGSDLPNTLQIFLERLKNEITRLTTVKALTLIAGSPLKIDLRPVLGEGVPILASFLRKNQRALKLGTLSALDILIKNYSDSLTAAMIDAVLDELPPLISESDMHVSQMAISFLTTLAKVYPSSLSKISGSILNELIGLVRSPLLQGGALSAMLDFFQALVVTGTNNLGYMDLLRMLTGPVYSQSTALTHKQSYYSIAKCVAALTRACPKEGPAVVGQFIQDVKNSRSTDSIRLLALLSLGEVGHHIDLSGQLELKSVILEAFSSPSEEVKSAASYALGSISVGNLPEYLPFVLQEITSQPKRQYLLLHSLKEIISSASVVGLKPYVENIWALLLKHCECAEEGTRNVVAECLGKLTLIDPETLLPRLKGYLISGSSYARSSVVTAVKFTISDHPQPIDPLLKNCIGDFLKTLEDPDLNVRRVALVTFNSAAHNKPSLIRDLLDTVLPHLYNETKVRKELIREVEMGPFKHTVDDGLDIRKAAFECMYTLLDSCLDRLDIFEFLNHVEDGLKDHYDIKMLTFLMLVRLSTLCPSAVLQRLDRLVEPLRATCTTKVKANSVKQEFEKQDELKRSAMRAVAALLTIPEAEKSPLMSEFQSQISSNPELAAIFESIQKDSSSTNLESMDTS
UniProt O14523: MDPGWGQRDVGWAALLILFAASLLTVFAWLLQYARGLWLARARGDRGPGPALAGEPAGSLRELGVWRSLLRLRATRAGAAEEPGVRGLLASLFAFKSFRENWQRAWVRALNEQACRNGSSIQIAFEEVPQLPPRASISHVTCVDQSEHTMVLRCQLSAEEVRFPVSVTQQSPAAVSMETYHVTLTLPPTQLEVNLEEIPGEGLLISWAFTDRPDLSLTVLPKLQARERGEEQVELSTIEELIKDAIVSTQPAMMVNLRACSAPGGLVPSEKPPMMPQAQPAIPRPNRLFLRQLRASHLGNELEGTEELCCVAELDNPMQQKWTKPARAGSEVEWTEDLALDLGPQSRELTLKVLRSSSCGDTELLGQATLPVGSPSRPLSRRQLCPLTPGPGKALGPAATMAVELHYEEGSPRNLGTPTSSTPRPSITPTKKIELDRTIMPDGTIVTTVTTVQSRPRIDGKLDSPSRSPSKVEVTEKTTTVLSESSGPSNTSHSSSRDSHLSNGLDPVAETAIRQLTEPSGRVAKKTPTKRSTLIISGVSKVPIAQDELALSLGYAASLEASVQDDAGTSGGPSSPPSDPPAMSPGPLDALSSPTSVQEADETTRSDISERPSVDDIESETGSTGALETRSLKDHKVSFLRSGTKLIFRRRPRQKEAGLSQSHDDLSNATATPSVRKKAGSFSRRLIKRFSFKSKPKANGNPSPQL
UniProt P27708: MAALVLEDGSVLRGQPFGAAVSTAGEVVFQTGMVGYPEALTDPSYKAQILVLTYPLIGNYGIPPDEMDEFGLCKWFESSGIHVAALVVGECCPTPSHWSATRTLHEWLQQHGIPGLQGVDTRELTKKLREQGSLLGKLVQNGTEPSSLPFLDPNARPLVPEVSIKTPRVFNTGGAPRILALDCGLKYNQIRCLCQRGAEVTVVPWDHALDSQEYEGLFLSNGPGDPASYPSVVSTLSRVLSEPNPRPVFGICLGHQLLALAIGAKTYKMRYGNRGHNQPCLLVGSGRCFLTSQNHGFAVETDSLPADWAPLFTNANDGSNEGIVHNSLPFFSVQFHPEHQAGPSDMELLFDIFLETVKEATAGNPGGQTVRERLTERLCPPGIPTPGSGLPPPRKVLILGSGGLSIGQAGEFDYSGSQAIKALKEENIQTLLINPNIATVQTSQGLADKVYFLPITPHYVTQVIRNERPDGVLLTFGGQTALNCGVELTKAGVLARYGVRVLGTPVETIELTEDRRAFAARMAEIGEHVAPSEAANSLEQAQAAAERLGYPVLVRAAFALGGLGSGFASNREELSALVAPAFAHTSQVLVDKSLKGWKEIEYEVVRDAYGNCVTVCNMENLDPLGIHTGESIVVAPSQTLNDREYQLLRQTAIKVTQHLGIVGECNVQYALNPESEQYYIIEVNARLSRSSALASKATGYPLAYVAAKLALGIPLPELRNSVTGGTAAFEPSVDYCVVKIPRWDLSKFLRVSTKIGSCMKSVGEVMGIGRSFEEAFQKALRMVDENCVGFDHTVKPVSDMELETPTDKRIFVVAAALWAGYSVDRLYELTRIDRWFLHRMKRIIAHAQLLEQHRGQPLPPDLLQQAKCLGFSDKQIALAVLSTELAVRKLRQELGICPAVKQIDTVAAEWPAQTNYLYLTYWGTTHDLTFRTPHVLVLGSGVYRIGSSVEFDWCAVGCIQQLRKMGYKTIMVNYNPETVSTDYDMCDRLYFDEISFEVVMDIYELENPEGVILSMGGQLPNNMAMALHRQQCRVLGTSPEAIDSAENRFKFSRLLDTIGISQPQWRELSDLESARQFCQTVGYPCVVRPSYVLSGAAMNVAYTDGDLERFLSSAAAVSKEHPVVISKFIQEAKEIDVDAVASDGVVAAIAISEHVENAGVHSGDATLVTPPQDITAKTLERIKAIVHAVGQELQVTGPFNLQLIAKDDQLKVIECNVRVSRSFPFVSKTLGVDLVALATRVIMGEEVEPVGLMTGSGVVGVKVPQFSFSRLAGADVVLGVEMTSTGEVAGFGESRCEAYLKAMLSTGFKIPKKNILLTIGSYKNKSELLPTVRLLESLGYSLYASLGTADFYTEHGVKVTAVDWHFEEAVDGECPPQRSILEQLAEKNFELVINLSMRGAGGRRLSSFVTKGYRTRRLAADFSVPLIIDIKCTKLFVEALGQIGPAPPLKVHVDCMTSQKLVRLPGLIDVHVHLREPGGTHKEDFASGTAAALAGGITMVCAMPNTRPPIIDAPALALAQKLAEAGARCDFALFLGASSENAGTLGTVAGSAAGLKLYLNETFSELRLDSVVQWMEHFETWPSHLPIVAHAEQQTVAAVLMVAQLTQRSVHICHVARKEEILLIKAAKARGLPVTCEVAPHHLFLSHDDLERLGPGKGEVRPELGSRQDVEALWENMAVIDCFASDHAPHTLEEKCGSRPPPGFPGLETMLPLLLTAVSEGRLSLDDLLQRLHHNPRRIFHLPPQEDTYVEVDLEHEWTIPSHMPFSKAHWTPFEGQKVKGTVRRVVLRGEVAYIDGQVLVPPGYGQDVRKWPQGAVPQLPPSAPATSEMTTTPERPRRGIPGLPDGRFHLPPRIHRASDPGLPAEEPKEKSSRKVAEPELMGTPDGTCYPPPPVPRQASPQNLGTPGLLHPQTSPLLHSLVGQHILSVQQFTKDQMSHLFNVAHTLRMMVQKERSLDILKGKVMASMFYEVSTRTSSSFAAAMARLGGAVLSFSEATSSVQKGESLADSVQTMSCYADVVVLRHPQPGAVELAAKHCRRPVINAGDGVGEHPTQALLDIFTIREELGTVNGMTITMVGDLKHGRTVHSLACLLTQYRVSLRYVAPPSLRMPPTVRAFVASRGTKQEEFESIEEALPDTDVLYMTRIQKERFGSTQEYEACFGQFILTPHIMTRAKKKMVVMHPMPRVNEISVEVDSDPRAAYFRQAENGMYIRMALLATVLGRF
UniProt Q86Y37: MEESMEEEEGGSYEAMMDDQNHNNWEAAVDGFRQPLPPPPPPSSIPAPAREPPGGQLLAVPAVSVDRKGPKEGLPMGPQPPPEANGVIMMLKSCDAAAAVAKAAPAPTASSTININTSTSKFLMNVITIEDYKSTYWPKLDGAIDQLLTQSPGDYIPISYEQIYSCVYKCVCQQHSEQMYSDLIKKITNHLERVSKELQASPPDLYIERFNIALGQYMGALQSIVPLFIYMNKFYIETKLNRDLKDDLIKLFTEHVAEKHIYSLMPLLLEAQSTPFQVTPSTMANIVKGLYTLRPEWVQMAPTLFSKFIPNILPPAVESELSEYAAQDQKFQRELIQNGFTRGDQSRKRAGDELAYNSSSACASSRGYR

The targets below were run with Cc1cc(ccc1-c1ccccc1)C(=O)N1CCCN(CC1)C(=O)CCl [compound 10] (assay: probe-labelled cysteine peptide fold change vs DMSO (competition) (log2 fold change); higher = less target engagement (more negative = stronger competition)). Details: 50 µM; THP-1; incubation time: 4 h.
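Also: competitive profiling in live THP-1 cells: cysteine peptides tagged with an iodoacetamide desthiobiotin (IA-DTB) probe, intensity after compound treatment relative to DMSO-treated cells.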

| Target | probe-labelled cysteine peptide fold change |
| --- | --- |
| BRCA1_P38398_1513_WYMHSCSGSLQNR (UniProt P38398) | -0.201 |
| C1orf50_Q9BV19_144_EWGTSCPHDFLGAYK (UniProt Q9BV19) | 0.135 |
| CANX_P27824_360_CESAPGCGVWQR (UniProt P27824) | 0.244 |
| C12orf29_Q8N999_302_CLFNHFLK (UniProt Q8N999) | -0.656 |
| C12orf29_Q8N999_117_EFFWNVEEDFKPAPECWIPAK (UniProt Q8N999) | -0.183 |
| C3_P01024_1458_VSHSEDDCLAFK (UniProt P01024) | -0.0967 |
| C8orf82_Q6P1X6_98_YEAAFPFLSPCGR (UniProt Q6P1X6) | -0.343 |
| BUD31_P41223_134_IIECTHCGCR (UniProt P41223) | -0.00885 |
| C11orf54_Q9H0W9_149_CHDFQCALLANLFASEGQPGK (UniProt Q9H0W9) | -0.4 |
| BTK_Q06187_502_FQTQQLLEMCK (UniProt Q06187) | -0.0477 |
| C6orf89_Q6UWU4_28_QTGHQCGMSEK (UniProt Q6UWU4) | -0.807 |
| BRAT1_Q6PJG6_308_LEHCPQALR (UniProt Q6PJG6) | -0.991 |
| BTK_Q06187_527_NCLVNDQGVVK (UniProt Q06187) | -0.335 |
| BRI3_O95415_78_YPANSIVVVGGCPVCR (UniProt O95415) | -0.111 |
| CAND1_Q86VP6_356_CLDAVVSTR (UniProt Q86VP6) | 0.163 |
| BRIX1_Q8TDN6_158_MTGNCLK (UniProt Q8TDN6) | -0.0278 |
| BRD1_O95696_86_ENSERPPVCLR (UniProt O95696) | -0.256 |
| CAMSAP1_Q5T5Y3_47_IAANLQWICAK (UniProt Q5T5Y3) | 0.000722 |
| C2CD2L_O14523_359_SSSCGDTELLGQATLPVGSPSRPLSR (UniProt O14523) | -0.171 |
| CAMK2B_Q13554_273_HPWVCQR (UniProt Q13554) | 0.237 |

| Target | probe-labelled cysteine peptide fold change |
| --- | --- |
| CAD_P27708_1296_CEAYLK (UniProt P27708) | -0.216 |
| C16orf62_Q7Z3J2_277_ETCLNWFFK (UniProt Q7Z3J2) | 0.0376 |
| BSG_P35613_203_VDSDDQWGEYSCVFLPEPMGTANIQLHGPPR (UniProt P35613) | 0.225 |
| C16orf62_Q7Z3J2_20_AEFASCR (UniProt Q7Z3J2) | -0.0888 |
| CAND1_Q86VP6_92_EYQVETIVDTLCTNMLSDK (UniProt Q86VP6) | 0.396 |
| BTAF1_O14981_1290_LHGILCDDMGLGK (UniProt O14981) | -0.174 |
| CABIN1_Q9Y6J0_1573_DVLLGSSIPWQQLQHMPAQGLFCER (UniProt Q9Y6J0) | 0.0414 |
| CAD_P27708_787_MVDENCVGFDHTVKPVSDMELETPTDKR (UniProt P27708) | 0.00727 |
| BST1_Q10588_271+280_LLQCVDHSTHPDCALK (UniProt Q10588) | -0.195 |
| C9orf64_Q5T6V5_281_GCSLWCVELIR (UniProt Q5T6V5) | 0.747 |
| C2CD2L_O14523_385_QLCPLTPGPGK (UniProt O14523) | 0.294 |
| BRD8_Q9H0E9-2_941_CAIEADMK (UniProt Q9H0E9) | -0.241 |
| BUB1_O43683_407_DAGCVNK (UniProt O43683) | -0.127 |
| BRD7_Q9NPI1_107_DLQCHAPVR (UniProt Q9NPI1) | 0.0455 |
| C3orf58_Q8NDZ4_170_LLTPEAVEGWSDLVHCPSQR (UniProt Q8NDZ4) | -0.062 |
| BTAF1_O14981_1401_FNYCILDEGHVIK (UniProt O14981) | 0.242 |
| CACUL1_Q86Y37_362_AGDELAYNSSSACASSR (UniProt Q86Y37) | -0.642 |
| BTK_Q06187_506_DVCEAMEYLESK (UniProt Q06187) | -0.0539 |
| C2orf69_Q8N8R5_267_GCVVLNQLLFELK (UniProt Q8N8R5) | 0.185 |

Part of the list above, set out differently:
Target | probe-labelled cysteine peptide fold change
BTAF1_O14981_1401_FNYCILDEGHVIK (UniProt O14981) | 0.242
CACUL1_Q86Y37_362_AGDELAYNSSSACASSR (UniProt Q86Y37) | -0.642
BTK_Q06187_506_DVCEAMEYLESK (UniProt Q06187) | -0.0539
